{"source": "PubChem BioAssay AID504771 (Drosophila RNAi Screening Center, 2011)", "screen": "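Knock-downs that increase or decrease Htt-Q46 aggregates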 (follow-up of hits)", "cell system": "Drosophila S2 cells with copper-inducible mutant huntingtin exon 1 (46 glutamines)-eGFP", "reagents": "long dsRNA against Drosophila genes, 250 ng dsRNA per well", "timing": "3 days of knock-down, then 2 days of copper induction before fixing", "conditions": "copper sulfate at 400 µM to switch on Htt-Q46-eGFP expression", "measurement": "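Automated image analysis of GFP-tagged aggregates per well: number, size and intensity against plate mean and SD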", "active means": "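Primary candidate if any aggregate measure lay more than 2 SD from the plate mean; active only if it then passed checks for off-target effects, reproducibility, independent dsRNAs and a promoter counter-screen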", "meaning of the calls": "active = confirmed modifier; inactive = primary candidate not confirmed", "note": "The reagents shown are a selection, not the whole library. 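All genes were primary candidates; inactive means validation failed, not no effect; aggregate scores behind calls are not deposited.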 A plus sign joins genes that one reagent is predicted to hit. Reagent sequences are not shown."}
{"gene":"Diap1 (Death-associated inhibitor of apoptosis 1)","amplicon":"DRSC11404","aggregation phenotype":"knock-down lowers aggregates","Outcome":"inactive"}
{"gene":"RpL14 (Ribosomal protein L14)","amplicon":"DRSC11269","aggregation phenotype":"knock-down lowers aggregates","Outcome":"inactive"}
{"gene":"mRpL13 (mitochondrial ribosomal protein L13)","amplicon":"DRSC02076","aggregation phenotype":"knock-down lowers aggregates","Outcome":"inactive"}
{"gene":"CG31805","amplicon":"DRSC01563","aggregation phenotype":"knock-down lowers aggregates","Outcome":"inactive"}
{"gene":"MED25 (Mediator complex subunit 25)","amplicon":"DRSC14483","aggregation phenotype":"knock-down lowers aggregates","Outcome":"inactive"}
{"gene":"MED25 (Mediator complex subunit 25)","amplicon":"DRSC22981","aggregation phenotype":"knock-down lowers aggregates","Outcome":"inactive"}
{"gene":"CG17026","amplicon":"DRSC10237","aggregation phenotype":"knock-down lowers aggregates","Outcome":"inactive"}
{"gene":"RpL4 (Ribosomal protein L4)","amplicon":"DRSC16833","aggregation phenotype":"knock-down lowers aggregates","Outcome":"inactive"}
{"gene":"Hsc70-3 (Heat shock protein 70 cognate 3)","amplicon":"DRSC20253","aggregation phenotype":"knock-down lowers aggregates","Outcome":"active"}
{"gene":"Ald1 (Aldolase 1)","amplicon":"DRSC14109","aggregation phenotype":"knock-down lowers aggregates","Outcome":"active"}
{"gene":"lncRNA:sphinx + ATPsynF","amplicon":"DRSC17191","aggregation phenotype":"knock-down lowers aggregates","Outcome":"inactive"}
{"gene":"MED22 (Mediator complex subunit 22)","amplicon":"DRSC18175","aggregation phenotype":"knock-down lowers aggregates","Outcome":"inactive"}
{"gene":"RpS3A (Ribosomal protein S3A)","amplicon":"DRSC17168","aggregation phenotype":"knock-down lowers aggregates","Outcome":"inactive"}
{"gene":"CycH (Cyclin H)","amplicon":"DRSC21308","aggregation phenotype":"knock-down lowers aggregates","Outcome":"inactive"}
{"gene":"IntS1 (Integrator 1)","amplicon":"DRSC04343","aggregation phenotype":"knock-down raises aggregates","Outcome":"inactive"}
{"gene":"PCID2 (PCI domain-containing protein 2)","amplicon":"DRSC10822","aggregation phenotype":"knock-down lowers aggregates","Outcome":"inactive"}
{"gene":"RpS3 (Ribosomal protein S3)","amplicon":"DRSC16838","aggregation phenotype":"knock-down lowers aggregates","Outcome":"inactive"}
{"gene":"MED30 (Mediator complex subunit 30)","amplicon":"DRSC23135","aggregation phenotype":"knock-down lowers aggregates","Outcome":"inactive"}
{"gene":"CG31454","amplicon":"DRSC22801","aggregation phenotype":"knock-down raises aggregates","Outcome":"inactive"}
{"gene":"larp (La related protein)","amplicon":"DRSC14728","aggregation phenotype":"knock-down raises aggregates","Outcome":"inactive"}
{"gene":"larp (La related protein)","amplicon":"DRSC16984","aggregation phenotype":"knock-down raises aggregates","Outcome":"inactive"}
{"gene":"S6KL (S6 Kinase Like)","amplicon":"DRSC19349","aggregation phenotype":"knock-down raises aggregates","Outcome":"inactive"}
{"gene":"RpL36 (Ribosomal protein L36)","amplicon":"DRSC18708","aggregation phenotype":"knock-down lowers aggregates","Outcome":"inactive"}
{"gene":"Rpn12 (Regulatory particle non-ATPase 12)","amplicon":"DRSC11275","aggregation phenotype":"knock-down lowers aggregates","Outcome":"inactive"}
{"gene":"Dgk (Diacyl glycerol kinase)","amplicon":"DRSC22236","aggregation phenotype":"knock-down lowers aggregates","Outcome":"inactive"}

Single entries from the entries so far:
RpL4 (Ribosomal protein L4) [DRSC16833], aggregation phenotype → knock-down lowers aggregates
lncRNA:sphinx + ATPsynF [DRSC17191], Outcome: inactive
Ald1 (Aldolase 1) [DRSC14109], aggregation phenotype = knock-down lowers aggregates
Entry for CG31805 [DRSC01563] in “Outcome”: inactive
Under “aggregation phenotype”, RpS3 (Ribosomal protein S3) [DRSC16838] has knock-down lowers aggregates
CG17026 [DRSC10237], Outcome: inactive

More entries follow:
{"gene":"par-1","amplicon":"DRSC05792","aggregation phenotype":"knock-down raises aggregates","Outcome":"inactive"}
{"gene":"Hmgcr (HMG Coenzyme A reductase)","amplicon":"DRSC16704","aggregation phenotype":"knock-down lowers aggregates","Outcome":"active"}
{"gene":"eIF3d1 (eukaryotic translation initiation factor 3 subunit d1)","amplicon":"DRSC16938","aggregation phenotype":"knock-down lowers aggregates","Outcome":"inactive"}
{"gene":"MED7 (Mediator complex subunit 7)","amplicon":"DRSC16059","aggregation phenotype":"knock-down lowers aggregates","Outcome":"inactive"}
{"gene":"beat-Vb (beaten path Vb)","amplicon":"DRSC12940","aggregation phenotype":"knock-down raises aggregates","Outcome":"inactive"}
{"gene":"Nipped-A","amplicon":"DRSC04883","aggregation phenotype":"knock-down raises aggregates","Outcome":"active"}
{"gene":"Gar1 (Gar1 ribonucleoprotein)","amplicon":"DRSC04441","aggregation phenotype":"knock-down lowers aggregates","Outcome":"inactive"}
{"gene":"Got1 (Glutamate oxaloacetate transaminase 1)","amplicon":"DRSC07177","aggregation phenotype":"knock-down lowers aggregates","Outcome":"active"}
{"gene":"Cdk9 (Cyclin-dependent kinase 9)","amplicon":"DRSC04601","aggregation phenotype":"knock-down lowers aggregates","Outcome":"inactive"}
{"gene":"SkpA (SKP1-related A)","amplicon":"DRSC18833","aggregation phenotype":"knock-down raises aggregates","Outcome":"active"}
{"gene":"eIF3g1 (eukaryotic translation initiation factor 3 subunit g1)","amplicon":"DRSC18427","aggregation phenotype":"knock-down lowers aggregates","Outcome":"inactive"}
{"gene":"Prp3 (Precursor RNA processing 3)","amplicon":"DRSC10912","aggregation phenotype":"knock-down lowers aggregates","Outcome":"inactive"}
{"gene":"RpS26 (Ribosomal protein S26)","amplicon":"DRSC03420","aggregation phenotype":"knock-down lowers aggregates","Outcome":"inactive"}
{"gene":"eIF2beta (eukaryotic translation initiation factor 2 subunit beta)","amplicon":"DRSC11341","aggregation phenotype":"knock-down lowers aggregates","Outcome":"inactive"}
{"gene":"Pp1-87B (Protein phosphatase 1 at 87B)","amplicon":"DRSC16794","aggregation phenotype":"knock-down lowers aggregates","Outcome":"inactive"}
{"gene":"M1BP (Motif 1 Binding Protein)","amplicon":"DRSC16566","aggregation phenotype":"knock-down lowers aggregates","Outcome":"inactive"}
{"gene":"SmD2 (Small ribonucleoprotein particle protein SmD2)","amplicon":"DRSC12536","aggregation phenotype":"knock-down lowers aggregates","Outcome":"inactive"}
{"gene":"Rpn7 (Regulatory particle non-ATPase 7)","amplicon":"DRSC16841","aggregation phenotype":"knock-down lowers aggregates","Outcome":"inactive"}
{"gene":"Prosalpha6 (Proteasome alpha6 subunit)","amplicon":"DRSC03401","aggregation phenotype":"knock-down lowers aggregates","Outcome":"inactive"}
{"gene":"Vha16-1 (Vacuolar H[+] ATPase 16kD subunit 1)","amplicon":"DRSC05020","aggregation phenotype":"knock-down raises aggregates","Outcome":"inactive"}
{"gene":"Sec71 (Secretory 71)","amplicon":"DRSC01893","aggregation phenotype":"knock-down lowers aggregates","Outcome":"inactive"}
{"gene":"CG16903","amplicon":"DRSC18561","aggregation phenotype":"knock-down lowers aggregates","Outcome":"inactive"}
